# Test results taken from US20220002396A1, “METHODS OF TREATING CANCER WITH FARNESYLTRANSFERASE INHIBITORS” (Kura Oncology, Inc., priority 2018, published 2022).
# At least one structure is not confirmed: it was looked up by name or label, or the drawing left a doubt.
# How the values were obtained:
# CMML = experiment: Tipifarnib-treated CMML subjects with pre-treatment BM gene expression data; type: in vivo, human; conditions: in 17 tipifarnib-treated CMML subjects
# Protocol: (§1) Gene expression profile (GEP) data generated using RNA-Seq and the Affymetrix U133A gene-chip of tumor samples from 71 patients enrolled in tipifarnib trials (CTEP-20, KO-TIP-002, KO-TIP-004) were analyzed with respect to study outcomes and complemented with analyses of mRNA expression in data sets from the cBioportal for Cancer Genomics. Clinical trial information: NCT00027872, NCT02464228, NCT02807272.
# Four objective responses and 1 tumor lysis syndrome were reported in 17 tipifarnib-treated CMML subjects with available pre-treatment BM gene expression data. CXCL12 expression (p=0.07) and the CXCL12/CXCR4 ratio (p=0.03) were predictive of those events while IGF1 expression levels were barely detectable in these patients.
# [1] = system: advanced pancreatic adenocarcinoma; experiment: Randomized, double-blind, placebo-controlled study of gemcitabine+tipifarnib versus gemcitabine+placebo (Study INT-17 / INT-11); type: in vivo, human
# Protocol: In a randomized, double-blind, placebo-controlled study of gemcitabine+tipifarnib versus gemcitabine+placebo in patients with advanced pancreatic adenocarcinoma previously untreated with systemic therapy, tipifarnib (R115777) was administered at a dosage amount of 200 mg twice a day, orally, and continuously (Study INT-17). Gemcitabine was administered intravenously at a dosage amount of 1,000 mg/m(2) weekly x 7 for 8 weeks, then weekly x 3 every 4 weeks. 686 patients were enrolled. The median overall survival for the experimental arm was 193 v 182 days for the control arm (P=0.75).
# previously untreated AML = experiment: Tipifarnib monotherapy in elderly patients with previously untreated AML (CTEP-20), outcome by IGF1/CXCL12 expression; type: in vivo, human
# Protocol: as §1
# Data from a study investigating tipifarnib monotherapy in elderly patients with previously untreated AML (CTEP-20) was examined in detail to determine the effect of the expression of CXCL12 and IGF1 on the response of the patients to tipifarnib.
# The effect of IGF1/CXCL12 co-expression on patient outcome in tipifarnib was examined. In previously untreated AML, 3 subsets of patients were identified with respect to IGF1/CXCL12 expression (FIG. 2A). These subsets were 1) high IGF1, high CXCL12 (left boxplots), 2) intermediate IGF1, low CXCL12 (middle boxplots), and 3) low IGF1, variable CXCL12, (right boxplots).
# When CXCL12 was at low levels and IGF1 was at intermediate levels, low CXCL12 levels translates to disease progression with 1 CR and 8 with progressive disease (PD) as outcome (FIG. 2C). When the IGF1 levels were low, CXCL12 had variable levels and six patients out of 15 experienced CR. […]
# PDX models of PDAC = experiment: Patient-derived xenograft (PDX) models of PDAC in mice, tumor volume; type: in vivo, BALB/c nude or Nu/nu mice
# breast cancer = experiment: Phase II study of tipifarnib in breast cancer patients (Study GBR-1); type: in vivo, human
# Protocol: Biomarkers in breast cancer were also examined for their relationship to CXCL12/IGF1 expression and to the activity of tipifarnib when administered to patients. A phase II study was performed with 76 patients treated with tipifarnib (Study GBR-1). Patients were tested for estrogen-receptor positivity (ER+) or negativity (ER−), progesterone receptor positivity (PGR+) or negativity (PGR−), and the presence or absence of TP53 mutation. Overall response rate in the study was 12%. Biomarker data was available for 41 patients.
smiles,measurement,setting,value
Cn1cncc1[C@@](N)(c1ccc(Cl)cc1)c1ccc2c(c1)c(-c1cccc(Cl)c1)cc(=O)n2C [tipifarnib],objective responses,CMML,Four
same,overall survival / therapeutic benefit versus gemcitabine+placebo,"[1]; all patients (FIG. 5A, left)",no therapeutic benefit
same,survival versus placebo and gemcitabine,"[1]; metastases to the liver (only), normal liver function and not hyperglycemic at study entry (FIG. 6C, right)",improved survival benefit
same,survival versus placebo and gemcitabine,"[1]; metastases to the liver (only), not hyperglycemic at study entry (FIG. 6C, left)",survival benefit
same,survival versus placebo and gemcitabine,"[1]; metastases to the liver (only), bilirubin, alanine transaminase or alkaline phosphatase within limits of normal",Survival benefit
same,survival versus placebo and gemcitabine,[1]; patients previously treated with folfirinox (FIG. 6B),Survival benefit
same,survival versus gemcitabine+placebo,"[1]; patients with locally advanced disease (LAD) (FIG. 5A, middle)",non-significant trend
same,survival versus placebo and gemcitabine,[1]; tumors metastasized to the lung or other organs,No survival benefit
same,survival versus gemcitabine+placebo,"[1]; tumors spread to local lymph nodes (nodal disease) (FIG. 5A, right)",better survival
same,predominant outcome,"previously untreated AML; subset high IGF1, high CXCL12, 10 subjects",hematological improvement (HI) or stable disease (SD)
same,complete response (CR),"previously untreated AML; subset low IGF1, variable CXCL12, out of 15",six
same,"reduction of tumor volume, wild type KRAS versus G12D KRAS tumors","PDX models of PDAC; CXCL12 high PDX models: PA2409 and PA3546 (wild type) vs PA3006 and PA6265 (G12D), PA3546 treated with tipifarnib-atorvastatin-celecoxib combination (FIG. 9)",more effective at reducing tumor volume
same,"reduction of tumor volume, high CXCL12 mRNA versus no CXCL12 tumors",PDX models of PDAC; KRAS wild type PDX models: PA2409 and PA3546 (high) vs PA6259 and PA1280 (none) (FIG. 10),more effective at reducing tumor volume
same,tumor volume,"PDX models of PDAC; two PDX models of KRAS wild type, CXCL12 mRNA expressing PDAC, tipifarnib 80 mg/kg BID PO, celecoxib 5 mg/kg QD PO, atorvastatin 2 mg/kg QD PO, 3-4 weeks (FIG. 8)",reduced tumor volume
same,patients with objective responses,breast cancer; of four patients with PGR(+) and ER(−) tumors,Three
same,patients with objective responses,breast cancer; of seven patients with PGR(+) and wild type TP53 tumors,Four
same,RESPONSE,"breast cancer; one line per patient, PGR(+) ER(−) population",RESPONSE
